From paper PMC9904227 come the findings set out here.

Protein sequences, listed by entry. Tags and fused reporters are not part of them.
UniProt Q96P20: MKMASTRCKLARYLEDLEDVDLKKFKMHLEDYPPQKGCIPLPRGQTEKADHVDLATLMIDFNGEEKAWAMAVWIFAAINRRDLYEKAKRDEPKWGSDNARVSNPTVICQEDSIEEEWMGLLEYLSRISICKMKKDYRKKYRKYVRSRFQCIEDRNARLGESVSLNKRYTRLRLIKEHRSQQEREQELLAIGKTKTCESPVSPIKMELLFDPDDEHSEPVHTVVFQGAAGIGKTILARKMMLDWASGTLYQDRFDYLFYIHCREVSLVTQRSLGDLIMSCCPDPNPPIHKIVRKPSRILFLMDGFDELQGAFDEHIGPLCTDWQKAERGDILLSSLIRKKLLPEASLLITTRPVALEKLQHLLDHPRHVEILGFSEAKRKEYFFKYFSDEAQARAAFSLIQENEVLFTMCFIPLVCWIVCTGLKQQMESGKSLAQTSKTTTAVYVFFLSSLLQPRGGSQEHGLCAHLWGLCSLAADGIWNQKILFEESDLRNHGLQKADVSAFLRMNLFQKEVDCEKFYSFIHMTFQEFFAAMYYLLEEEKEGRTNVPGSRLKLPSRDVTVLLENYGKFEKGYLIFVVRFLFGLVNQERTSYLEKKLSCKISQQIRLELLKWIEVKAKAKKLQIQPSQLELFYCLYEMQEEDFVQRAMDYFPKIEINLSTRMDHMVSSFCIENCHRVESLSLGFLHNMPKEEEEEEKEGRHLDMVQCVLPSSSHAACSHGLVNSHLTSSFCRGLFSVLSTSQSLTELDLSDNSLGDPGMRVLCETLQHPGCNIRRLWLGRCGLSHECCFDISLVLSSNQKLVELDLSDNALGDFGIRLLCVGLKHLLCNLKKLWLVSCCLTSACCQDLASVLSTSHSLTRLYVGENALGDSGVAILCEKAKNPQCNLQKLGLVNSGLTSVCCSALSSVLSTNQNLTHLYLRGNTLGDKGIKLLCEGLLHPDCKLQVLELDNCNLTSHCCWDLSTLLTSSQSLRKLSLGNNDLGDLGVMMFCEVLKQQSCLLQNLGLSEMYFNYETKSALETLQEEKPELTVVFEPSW
UniProt P55060: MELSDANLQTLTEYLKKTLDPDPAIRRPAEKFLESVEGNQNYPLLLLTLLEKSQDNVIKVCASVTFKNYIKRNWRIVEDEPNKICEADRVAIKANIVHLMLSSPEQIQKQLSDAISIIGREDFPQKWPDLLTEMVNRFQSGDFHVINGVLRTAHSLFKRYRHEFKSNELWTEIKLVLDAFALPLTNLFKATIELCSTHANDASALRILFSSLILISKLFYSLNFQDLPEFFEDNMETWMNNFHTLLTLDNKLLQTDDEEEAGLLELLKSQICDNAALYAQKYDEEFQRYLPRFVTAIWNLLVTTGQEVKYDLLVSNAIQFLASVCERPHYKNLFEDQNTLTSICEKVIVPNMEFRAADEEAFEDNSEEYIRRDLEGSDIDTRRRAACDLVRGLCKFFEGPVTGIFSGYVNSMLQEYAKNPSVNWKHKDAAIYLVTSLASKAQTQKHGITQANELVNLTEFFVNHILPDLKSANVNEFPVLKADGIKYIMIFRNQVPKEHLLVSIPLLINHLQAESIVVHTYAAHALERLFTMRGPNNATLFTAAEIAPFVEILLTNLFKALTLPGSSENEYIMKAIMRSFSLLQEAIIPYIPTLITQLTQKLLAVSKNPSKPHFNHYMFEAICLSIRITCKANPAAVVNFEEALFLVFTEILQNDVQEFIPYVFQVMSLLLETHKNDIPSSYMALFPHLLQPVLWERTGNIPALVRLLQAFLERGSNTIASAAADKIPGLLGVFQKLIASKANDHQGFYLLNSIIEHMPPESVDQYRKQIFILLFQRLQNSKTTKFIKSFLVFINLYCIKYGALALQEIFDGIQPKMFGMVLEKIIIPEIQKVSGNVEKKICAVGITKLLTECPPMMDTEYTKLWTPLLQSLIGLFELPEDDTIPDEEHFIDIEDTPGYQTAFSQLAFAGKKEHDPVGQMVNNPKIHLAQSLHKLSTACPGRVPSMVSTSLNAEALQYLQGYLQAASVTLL

Results are given in words; binding and its absence hold for the method and conditions named. In cells and extracts the contact can be indirect. Some entries that bind do so weakly or less than the wild type. For some of these results: Where a sequence is shown, tags or fusion partners need not be part of it.

The target of experiment [1] is T1, HA-ATM kinase domain (aa 2566-3057) (UniProt Q13315).
T1 sequence: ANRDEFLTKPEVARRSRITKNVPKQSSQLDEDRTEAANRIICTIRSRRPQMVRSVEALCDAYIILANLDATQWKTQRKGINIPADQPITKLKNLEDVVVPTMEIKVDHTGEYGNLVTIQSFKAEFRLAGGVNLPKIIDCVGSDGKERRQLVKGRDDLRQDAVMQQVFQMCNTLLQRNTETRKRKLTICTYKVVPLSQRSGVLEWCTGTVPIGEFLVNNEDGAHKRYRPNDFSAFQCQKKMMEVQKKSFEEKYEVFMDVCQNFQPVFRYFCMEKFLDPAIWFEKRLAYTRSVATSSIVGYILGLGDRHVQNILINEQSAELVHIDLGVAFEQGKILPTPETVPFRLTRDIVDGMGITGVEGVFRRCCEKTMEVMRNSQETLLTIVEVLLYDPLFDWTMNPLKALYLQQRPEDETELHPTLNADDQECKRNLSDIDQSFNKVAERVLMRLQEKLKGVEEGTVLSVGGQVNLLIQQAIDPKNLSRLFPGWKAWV
In words: co-IP; HeLa cells transfected with FLAG-NLRP3 and HA-ATM kinase domain; same lysis buffer; IP with anti-HA-agarose beads overnight at 4 °C; immunoblot. (A western blot detects proteins with antibodies after separation by electrophoresis.)

For the next experiment, the target named is FLAG-NLRP3 (human) (UniProt Q96P20). In words: co-IP; HeLa cells transfected; lysis in Tris-HCl 100 mM pH 8.0, 10 mM MgCl2, 90 mM NaCl, 0.1% Triton X-100; IP with anti-FLAG M2-agarose beads overnight at 4 °C; immunoblot.
In the next experiment the target is FLAG-ATM (UniProt Q13315). The description is as above.

As to FLAG-NLRP3 (from UniProt Q96P20 1-1036), the binding result in experiment [1] is given as “binds”.
As to XPO2 (from UniProt P55060 1-971), the binding result with FLAG-NLRP3 (human) was “binds”.
For “mCherry-NLRP3 (from UniProt Q96P20 1-1036)”, the binding entry in the experiment with FLAG-ATM is reported as “binds”.

B1: IPO5 (protein, UniProt O00410 1-1097)
chain: MAAAAAEQQQFYLLLGNLLSPDNVVRKQAEETYENIPGQSKITFLLQAIRNTTAAEEARQMAAVLLRRLLSSAFDEVYPALPSDVQTAIKSELLMIIQMETQSSMRKKVCDIAAELARNLIDEDGNNQWPEGLKFLFDSVSSQNVGLREAALHIFWNFPGIFGNQQQHYLDVIKRMLVQCMQDQEHPSIRTLSARATAAFILANEHNVALFKHFADLLPGFLQAVNDSCYQNDDSVLKSLVEIADTVPKYLRPHLEATLQLSLKLCGDTSLNNMQRQLALEVIVTLSETAAAMLRKHTNIVAQTIPQMLAMMVDLEEDEDWANADELEDDDFDSNAVAGESALDRMACGLGGKLVLPMIKEHIMQMLQNPDWKYRHAGLMALSAIGEGCHQQMEGILNEIVNFVLLFLQDPHPRVRYAACNAVGQMATDFAPGFQKKFHEKVIAALLQTMEDQGNQRVQAHAAAALINFTEDCPKSLLIPYLDNLVKHLHSIMVLKLQELIQKGTKLVLEQVVTSIASVADTAEEKFVPYYDLFMPSLKHIVENAVQKELRLLRGKTIECISLIGLAVGKEKFMQDASDVMQLLLKTQTDFNDMEDDDPQISYMISAWARMCKILGKEFQQYLPVVMGPLMKTASIKPEVALLDTQDMENMSDDDGWEFVNLGDQQSFGIKTAGLEEKSTACQMLVCYAKELKEGFVEYTEQVVKLMVPLLKFYFHDGVRVAAAESMPLLLECARVRGPEYLTQMWHFMCDALIKAIGTEPDSDVLSEIMHSFAKCIEVMGDGCLNNEHFEELGGILKAKLEEHFKNQELRQVKRQDEDYDEQVEESLQDEDDNDVYILTKVSDILHSIFSSYKEKVLPWFEQLLPLIVNLICPHRPWPDRQWGLCIFDDVIEHCSPASFKYAEYFLRPMLQYVCDNSPEVRQAAAYGLGVMAQYGGDNYRPFCTEALPLLVRVIQSADSKTKENVNATENCISAVGKIMKFKPDCVNVEEVLPHWLSWLPLHEDKEEAVQTFNYLCDLIESNHPIVLGPNNTNLPKIFSIIAEGEMHEAIKHEDPCAKRLANVVRQVQTSGGLWTECIAQLSPEQQAAIQELLNSA
In the case of B1, the binding entry in the experiment with FLAG-NLRP3 (human) is listed as “binds”.
